From paper PMC12745842
No constants are given. Whether binding was seen depends on the method and setting. For part of these data: Binding seen in cells or lysates may run through a third protein. Some binding calls cover weakened binding; strength is not graded here.

Chains of the proteins cited; added tags and fusions are not shown.
UniProt O60260: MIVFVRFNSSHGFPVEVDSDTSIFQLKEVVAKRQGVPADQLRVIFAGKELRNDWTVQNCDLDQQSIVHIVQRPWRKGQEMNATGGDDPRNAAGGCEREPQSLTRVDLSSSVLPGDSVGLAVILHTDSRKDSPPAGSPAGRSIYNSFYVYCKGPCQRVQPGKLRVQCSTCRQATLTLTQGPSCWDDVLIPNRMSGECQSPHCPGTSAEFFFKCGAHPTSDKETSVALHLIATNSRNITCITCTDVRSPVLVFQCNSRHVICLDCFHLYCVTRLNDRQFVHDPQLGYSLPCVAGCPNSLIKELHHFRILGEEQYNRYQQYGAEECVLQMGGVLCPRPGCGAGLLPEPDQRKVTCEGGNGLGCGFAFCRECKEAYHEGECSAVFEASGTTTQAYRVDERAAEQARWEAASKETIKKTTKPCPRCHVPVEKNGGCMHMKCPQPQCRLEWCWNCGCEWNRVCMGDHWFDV
UniProt Q86U44: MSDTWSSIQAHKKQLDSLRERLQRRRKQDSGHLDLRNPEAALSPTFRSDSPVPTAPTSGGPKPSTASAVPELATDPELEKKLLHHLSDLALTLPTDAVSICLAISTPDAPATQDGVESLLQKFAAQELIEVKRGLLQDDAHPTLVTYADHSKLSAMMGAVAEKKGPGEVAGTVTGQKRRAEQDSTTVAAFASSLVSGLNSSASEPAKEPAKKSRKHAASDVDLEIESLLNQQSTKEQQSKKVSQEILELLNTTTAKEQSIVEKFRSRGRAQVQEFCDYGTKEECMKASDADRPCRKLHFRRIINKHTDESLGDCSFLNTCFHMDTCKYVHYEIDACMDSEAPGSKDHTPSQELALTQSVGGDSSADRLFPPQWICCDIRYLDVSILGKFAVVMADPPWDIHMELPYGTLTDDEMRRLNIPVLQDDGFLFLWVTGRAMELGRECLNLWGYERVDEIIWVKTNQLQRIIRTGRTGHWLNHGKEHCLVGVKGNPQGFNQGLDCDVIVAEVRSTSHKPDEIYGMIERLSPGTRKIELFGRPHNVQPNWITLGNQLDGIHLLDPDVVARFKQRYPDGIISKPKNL

Experiments:
Myc-PRKN = Myc-PRKN (UniProt O60260); assay: pull-down; recombinant His-METTL3 and Myc-PRKN incubated with Myc-Beads in RIPA buffer (1% NP-40, 0.25% sodium deoxycholate, 50 mmol/L Tris-HCl pH 7.4, 150 mmol/L NaCl) at 4°C for 1 h; Myc peptide as control; washed four times; Western blot with anti-METTL3 and anti-PRKN; both purified
GFP-PRKN = GFP-PRKN (UniProt O60260); assay: co-IP; HEK293T cells transfected with the tagged bait (GFP-PRKN or Flag-METTL3) or empty vector; lysed in RIPA buffer (50 mM Tris pH 7.4, 0.25% sodium deoxycholic acid, 1% Triton, 150 mM NaCl, 1 mM EDTA); anti-GFP beads or anti-Flag beads; beads washed five times with RIPA; Western blot
[1] = molecular target: Flag-METTL3 (human (amplified from HEK293T mRNA)) (UniProt Q86U44); assay: as above

His-METTL3 (from UniProt Q86U44 1-580) was tested, and the binding (Myc-PRKN) was “binds”.
For “METTL3 (endogenous, HEK293T) (from UniProt Q86U44 1-580)”, the binding (GFP-PRKN) was “binds”.
In the case of “PRKN (endogenous, HEK293T) (from UniProt O60260 1-465)”, the binding [1] was “binds”.
